{
  "source": "patent US20230364102A1",
  "about": "“COMPOSITIONS AND METHODS FOR THE TREATMENT OF NEUROLOGICAL DISORDERS” (Duke University, priority 2020, published 2023)",
  "tested_on": "DA neurons differentiated from iPSCs harboring the LRRK2 G2019S mutation",
  "assay": "mtDNA damage in DA neurons differentiated from iPSCs harboring the LRRK2 G2019S mutation",
  "type": "cell-based, human",
  "details": "treatment for 24 h, n=2",
  "note": "“Also recorded” adds a separate entry of the source. At least one structure is not confirmed: it was looked up by name or label, or the drawing left a doubt.",
  "data": [
    {"compound": "CO[C@H]1C[C@@H]2CC[C@@H](C)[C@@](O)(O2)C(=O)C(=O)N2CCCC[C@H]2C(=O)O[C@H]([C@H](C)C[C@@H]2CC[C@@H](O)[C@H](OC)C2)CC(=O)[C@H](C)/C=C(\\C)[C@@H](O)[C@@H](OC)C(=O)[C@H](C)C[C@H](C)/C=C/C=C/C=C/1C", "note": "[rapamycin]", "values": [
      {"measurement": "mtDNA damage", "value": "restored mtDNA integrity; also recorded: restores mtDNA damage back to healthy control levels"}
    ]}
  ]
}
